Experimental data reported in patent US5830910A (priority 1995, dated 1998).
“Also recorded” adds a separate entry of the source. For at least one compound, name, drawing or mass did not settle the structure.

Assays:
Assay type in all cases: cell-based, rat
[1] = test system: cultured hippocampal neurons; details: 1-1000 nM tested
Text: (§1) Dissociated embryonic rat hippocampal cell cultures were established and maintained. All procedures conformed with the NIH Guide for the Care and Use of Laboratory Animals and were approved by the University of Kentucky Animal Care and Use Committee. Cultures were maintained on a polyethyleneimine-coated substrate in plastic 35-mm dishes or 96 wall plates (for cell survival studies) or glass-bottom 35-mm dishes (for [Ca^2+ ]i imaging studies). The cell density was ^~ 70-100 cells/mm^2. Cells were maintained in Eagle's minimum essential medium supplemented 10% with fetal bovine serum and containing 20 mM sodium pyruvate. […]
Neuronal survival was quantified by counting viable neurons in the same microscope fields (10x objective) immediately before experimental treatment and at time points after treatment. In addition, cells were grown in 96-well plates and Alamar blue fluorescence (Alamar Laboratories)was quantified by using a fluorescence plate reader. […] Viability of the remaining neurons was assessed by morphological criteria. […] Survival values were expressed as percentages of the initial number of neurons present before experimental treatment. […]
(A) Neuronal survival was quantified in cultures that had been pretreated with the indicated concentrations of cytochalasin D and then exposed to 50 μM glutamate for 20 h. […]

[2] = test system: actin filaments in cultured hippocampal neurons; assay: phalloidin fluorescence of actin filaments, neurons; details: 3 h
Protocol: Hippocampal cells were exposed to cytochalasin D and then fixed for 30 min in 4% paraformaldehyde/phosphate-buffered saline. Cell membranes were permeabilized by incubating for 5 min in a solution of 0.2% Triton X-100 in phosphate-buffered saline. Cells were then incubated for 30 min in PBS containing 0.005 U/ml fluorescein-phalloidin (Molecular Probes). Cells were rinsed in water and mounted in Vectashield antifade solution (Vector Laboratories) . Fluorescence images were acquired using a Sarastro 2000 confocal laser scanning microscope with a 60x oil-immersion objective. All images were acquired using identical settings for excitation intensity and detector gain.
FIG. 4. (A) Micrographs are confocal laser scanning microscope images of cultured hippocampal cells stained with fluorescein-labeled phalloidin. Cells were exposed for 3 h to either vehicle (control; left) or 100 nM cytochalasin D (right) prior to staining with phalloidin. The top micrographs show several neurons (arrowheads point to neuronal cell bodies); note reduction in phalloidin fluorescence in cytochalasin-treatedneurons.
(B) Cytochalasin D and glutamate cause a reduction in neuronal phalloidin fluorescence. […] Values represent the mean fluorescence intensity per neuronal cell body (±SEM; n=15-18). […]

[3] = test system: neuronal [Ca^2+]i in cultured hippocampal neurons; assay: measurement of [Ca^2+]i, fura-2 imaging; details: 50 μM glutamate, control cultures
Text: as §1
Fluorescence ratio imaging of the Ca^2+ indicator dye fura-2 was used to quantify [Ca^2+ ]i in neuronal somata. […] The ratio of the fluorescence emission using two different excitation wavelengths (334 and 380 nm) was used to determine [Ca^2+ ]i. […]
(A) Cultures were pretreated for 1 hr with 100 nM cytochalasin D and then [Ca^2+ ]i in neurons was monitored prior to and following exposure to 50 μM glutamate. […]
(B) Aβ-induced potentiation of [Ca^2+ ]i response to glutamate is abrogated by cytochalasin D. Cultures were left untreated (Control) or were exposed to 20 μM Aβ25-35 for 6 hr or cytochalasin D plus Aβ25-35 for 6 hr. The [Ca^2+ ]i was then monitored prior to following exposure to 50 μM glutamate. […]

Compound	concentrations most effective in protecting neurons against glutamate toxicity [1]	neuronal phalloidin fluorescence ([2]; 50, 100, 200 μM)	phalloidin staining in Ca^2+-free medium ([2]; Ca^2+-free medium)	increase in neuronal [Ca^2+]i [3]
C=C1[C@@H](C)[C@H]2[C@H](Cc3ccccc3)NC(=O)[C@]23[C@H](OC(C)=O)/C=C/[C@@](C)(O)C(=O)[C@@H](C)C/C=C/[C@H]3[C@@H]1O [Cytochalasin D, cytochalasin D]	10 and 100 nM	–	–	–
N[C@@H](CCC(=O)O)C(=O)O [Glutamate, glutamate, reference compound]	–	concentration-dependent reduction in levels of phalloidin fluorescence; also recorded: highly significant	did not reduce phalloidin staining	approximately five-fold
